The results in this text go back to publication PMC12373997.

This test has as its target β-tubulin of porcine brain, in taxol-stabilized microtubules (porcine). The experiment in a line: cryo-EM structure; taxol-stabilized MTs (0.5 mg/ml) adsorbed on the grid, then repeated application of D. melanogaster GST-N-clamp (4 µM) in BRB80; 13-protofilament MTs, symmetry expansion and focused classification; AF2 model of the N-clamp rigid-body docked; both purified.

These are yes or no findings as the source states them, for the method shown. A result given as binding can be weak or reduced; the word gives no strength.

B1: D. melanogaster Dgt6 (HAUS6 ortholog), N-clamp fragment with the CH domain (domain or fragment, UniProt Q9VAP2 1-280)
chain: MDRTIIAPWKAEEKEQSEKLHRKLQGLALVHPLPDELRKLIAWDMFLKPNQVAFVHVMHYLFRLLDPAEFKRRFFWPITDKKSEANFRSSTVEYLKHLNEKHQLHWANIKSYLVVMPGGMRFINFLLEFVGFVIQELIKQREKSLGLEAGTPNVSAKVMARQNAVMKEYASSYVVNLEENTALLRDKTQKIRRLMADLSADMGVPEEQLADDGFLDEFEATAALGVERVITQPTERKFDLEASLCGLKEAIDLFQVKQAENNQSKEAVEKALRGMRVLFD
As for B1, the binding entry is listed as “binds”.
